In patent US20220275390A1, “RUBISCO-BINDING PROTEIN MOTIFS AND USES THEREOF” (The Trustees of Princeton University, priority 2019, published 2022) one finds binding data, which are given here for 41 molecules.

These are yes or no findings as the source states them, for the method shown. Some entries that bind do so weakly or less than the wild type.

In one test the target is Chlamydomonas reinhardtii Rubisco holoenzyme (L8S8) (Chlamydomonas reinhardtii) (UniProt P00877). In words: SPR, response signal.
Turning to TRSVLPANWRQELESLRN [EPYC1 RBM 2 peptide (middle 16 amino acids of EPYC1 RBM 2)], the binding result is “binds”. Still for that read-out and setting: under RQELESLRN stands “binds”; under TRSVLPANWRQE, “binds”; under VLPANWRQELESLRN, “binds”. Same read-out and setting: the result for ANWRQELESLRN reads “binds”; that for TRSVLPANW, “binds”.

The next test has the same target. In words: cryo-EM structure, 2.8 Å.
Take TNRVSPTRSVLPANWRQELESLRN [24 amino acid EPYC1 fragment spanning RBM 2]: the binding result was “binds”.

A further test shares this target. In words: SPR, Rubisco immobilized, peptide in solution.
As for TNRVSPTRSVLPANWRQELESLRN [24 amino acid EPYC1 fragment spanning RBM 2], the binding entry is given as “binds”.

For another test the target is unchanged. In words: cryo-EM, substitution arrays, SPR, yeast two-hybrid (summary of Example 2).
Turning to TNRVSPTRSVLPANWRQELESLRN [24 amino acid EPYC1 fragment spanning RBM 2], the binding result is “binds”.

For a further test the target is unchanged. In words: SPR on purified Rubisco, response normalized to 1,000 Rubisco RUs, +/-SD, n=3; the text speaks of fifteen amino acid-long synthetic peptides.
Take RSATTGRSGSVPKDWRSSL [SEQ ID NO 25]: the binding entry is “binds”.

With RGTGDSPTRRAFGDWRKNL [SEQ ID NO 3], the binding entry was “binds”. Still for that read-out and setting: under RNASPVRRTAIPANWRDAL [SEQ ID NO 5] stands “binds”; under SPSERLAREARMRDWRARV [SEQ ID NO 11], “binds”; under KSKPEIKRTALPADWRKGL [SEQ ID NO 18], “binds”. On the same count and under the same terms, under TELSEANRPRTRPDWRNQL [SEQ ID NO 9] stands “binds”.

For another test the target is unchanged. In words: SPR, purified Rubisco immobilized, synthetic peptide in solution (FIG. 13).
On to ASDSEGGETVTKANWREALAALHDAGSDG [SEQ ID NO 8], for which the binding result was “binds”. Same read-out and setting: the result for PPAPAPAPAKTKPDWREQAQAPVQAAAAA [SEQ ID NO 7] reads “binds”. On the same count and under the same terms, the result for RSATTGRSGSVPKDWRSSL [SEQ ID NO 25] reads “binds”; that for RRDLKIKRTVLPANWRDSLDEDEPAKPAA [SEQ ID NO 26], “binds”; that for SGRVKTVKVAARGSWRESSTATVQASRAS [SEQ ID NO 24], “binds”.

With RGTGDSPTRRAFGDWRKNL [SEQ ID NO 3], the binding result is listed as “binds”. RNASPVRRTAIPANWRDAL [SEQ ID NO 5]: the binding entry is given as “binds”.

Take KAQPQQPGRSTSADWRRLVSGGDAAGKDA [SEQ ID NO 4]: the binding result was “binds”. Still for that read-out and setting: the result for APAPVSFRSASRSSWRDEVAAEAVPVPAA [SEQ ID NO 15] reads “binds”.

Turning to PSVSPSASAVVPRDWRRELQSSAGEGAES [SEQ ID NO 13], the binding result is given as “binds”. Same read-out and setting: the result for SPSERLAREARMRDWRARV [SEQ ID NO 11] reads “binds”; that for SGADSRSPSPRTLAWREAAEAQEREQESK [SEQ ID NO 6], “binds”. As for ARVVVSAGSRAPSNWRQQVDGGSNGNGNG [SEQ ID NO 12], the binding entry is “binds”. KSKPEIKRTALPADWRKGL [SEQ ID NO 18]: the binding entry is given as “binds”. Consider ASSAPAPARSSSASWRDAAPASSAPARSS [SEQ ID NO 22], for which the binding result is listed as “binds”. With PAAPSTSRSRSVTNWRDQVEAEAARAATA [SEQ ID NO 14], the binding result was “binds”. Turning to GDAASARASTVMSNWRDVIDSGAEVSAAP [SEQ ID NO 17], the binding result was “binds”. On the same count and under the same terms, under TELSEANRPRTRPDWRNQL [SEQ ID NO 9] stands “binds”; under ASSAPAPARSSSASWRDAPASSSSSSADK [SEQ ID NO 19], “binds”. Same read-out and setting: the result for ADADRSDSSRRPVNWRDELQSLKATREPN [SEQ ID NO 10] reads “binds”; that for TNRVSPTRSVLPANWRQELESLRNGNGSS [SEQ ID NO 23], “binds”; that for GAEEEAAAAAVPDDWRQAAEAEAYAPAGT [SEQ ID NO 16], “binds”. The same measure, in the same setting: the result for KKAVTPSRSALPSNWKQELESLRSSSPAP [SEQ ID NO 21] reads “binds”.

As to KKAVTPSRSALPSNWKQELESLRSNSPAP [SEQ ID NO 20], the binding entry is given as “binds”.

For the next test the target is unchanged. In words: SPR, Rubisco-binding signal.
For the molecule TRSVLPANWRQELESLRN [EPYC1 RBM 2 peptide (middle 16 amino acids of EPYC1 RBM 2)], the binding entry was “binds”. Turning to TRSVLPANWAQELESLRN [trsvlpanwaqeleslrn], the binding result was “binds”.

With TRSVLPANWRQALESLRN [trsvlpanwrqaleslrn], the binding entry is on record as “binds”.

Consider TRSVLPAAWRQELESLRN [trsvlpaawrqeleslrn], for which the binding result is given as “binds”.

Regarding TRSVLPANARQELESLRN [trsvlpanarqeleslrn], the binding result is “binds”. The same measure, in the same setting: under TASVLPANWRQELESLRN [tasvlpanwrqeleslrn] stands “binds”. On the same count and under the same terms, the result for TRSVLPANWRQELESLAN [trsvlpanwrqeleslan] reads “binds”. The same measure, in the same setting: under TRSVLPANWRQELASLRN [trsvlpanwrqelaslrn] stands “binds”.

On to TRSVLPANWRAELESLRN [trsvlpanwraeleslrn], for which the binding entry was “binds”. On the same count and under the same terms, under TRSVLPANWRQEAESLRN [trsvlpanwrqeaeslrn] stands “binds”; under TRSVLPANWRQELESARN [trsvlpanwrqelesarn], “binds”.

Another test has the same target. In words: SPR, steady-state fit.
TNRVSPTRSVLPANWRQELESLRN [24 amino acid EPYC1 fragment spanning RBM 2]: the binding entry was “binds”.
